Results published in article PMC12372902.
These are yes or no findings as the source states them, for the method shown. For part of these data: Binding seen in cells or lysates may run through a third protein. Some results given as binding are weak or reduced against the parent protein; the word gives no strength.

By UniProt entry, the sequences of proteins in these tests, tags left out.
UniProt O60218: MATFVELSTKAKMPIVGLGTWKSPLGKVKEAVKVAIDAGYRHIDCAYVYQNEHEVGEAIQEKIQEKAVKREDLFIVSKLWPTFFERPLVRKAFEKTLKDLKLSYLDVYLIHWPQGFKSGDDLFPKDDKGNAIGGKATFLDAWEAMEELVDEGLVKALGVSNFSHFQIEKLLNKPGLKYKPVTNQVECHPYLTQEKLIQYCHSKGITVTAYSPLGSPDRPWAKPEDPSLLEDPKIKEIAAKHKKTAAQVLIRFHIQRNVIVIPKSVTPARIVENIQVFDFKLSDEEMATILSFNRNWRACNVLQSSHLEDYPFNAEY
UniProt Q15172: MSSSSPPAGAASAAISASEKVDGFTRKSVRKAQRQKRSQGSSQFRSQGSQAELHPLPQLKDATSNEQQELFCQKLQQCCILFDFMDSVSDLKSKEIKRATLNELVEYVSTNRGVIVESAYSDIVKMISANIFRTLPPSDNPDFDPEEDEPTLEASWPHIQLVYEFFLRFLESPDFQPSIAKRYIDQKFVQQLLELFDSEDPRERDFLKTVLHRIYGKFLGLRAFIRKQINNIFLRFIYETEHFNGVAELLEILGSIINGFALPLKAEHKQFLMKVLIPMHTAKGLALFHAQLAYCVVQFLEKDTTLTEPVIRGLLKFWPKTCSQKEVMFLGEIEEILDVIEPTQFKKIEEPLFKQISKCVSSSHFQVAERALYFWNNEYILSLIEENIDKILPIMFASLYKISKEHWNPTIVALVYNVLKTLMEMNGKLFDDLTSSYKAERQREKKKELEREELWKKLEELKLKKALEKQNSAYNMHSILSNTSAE
UniProt P30153: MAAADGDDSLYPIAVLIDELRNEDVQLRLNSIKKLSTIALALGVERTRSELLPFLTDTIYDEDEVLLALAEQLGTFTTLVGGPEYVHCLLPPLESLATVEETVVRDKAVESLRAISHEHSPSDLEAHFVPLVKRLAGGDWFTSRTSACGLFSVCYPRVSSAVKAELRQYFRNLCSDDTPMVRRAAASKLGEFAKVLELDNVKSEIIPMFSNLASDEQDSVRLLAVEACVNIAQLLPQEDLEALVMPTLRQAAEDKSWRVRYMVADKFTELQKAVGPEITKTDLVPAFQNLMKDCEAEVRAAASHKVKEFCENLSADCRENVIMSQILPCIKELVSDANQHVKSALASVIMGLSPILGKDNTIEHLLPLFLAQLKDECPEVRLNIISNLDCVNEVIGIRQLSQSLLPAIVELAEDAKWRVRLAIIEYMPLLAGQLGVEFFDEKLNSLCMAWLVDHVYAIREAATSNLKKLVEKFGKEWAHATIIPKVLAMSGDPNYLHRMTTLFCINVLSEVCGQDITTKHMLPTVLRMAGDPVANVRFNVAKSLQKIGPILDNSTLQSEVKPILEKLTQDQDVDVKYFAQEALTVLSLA
UniProt P67775: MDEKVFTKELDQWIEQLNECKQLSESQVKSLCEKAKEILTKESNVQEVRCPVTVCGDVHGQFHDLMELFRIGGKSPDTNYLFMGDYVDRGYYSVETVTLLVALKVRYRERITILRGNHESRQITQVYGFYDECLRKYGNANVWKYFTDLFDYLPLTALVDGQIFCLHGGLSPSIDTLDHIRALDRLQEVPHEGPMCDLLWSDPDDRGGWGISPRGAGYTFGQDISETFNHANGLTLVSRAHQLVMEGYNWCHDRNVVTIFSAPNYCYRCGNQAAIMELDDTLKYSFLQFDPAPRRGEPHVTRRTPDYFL

Columns and labels:
[1] = target: recombinant GST-AKR1B10 protein (human) (UniProt O60218); test: pull-down; 3 μg of GST-AKR1B10 (WT or K125L) on glutathione-Sepharose beads, 3 μg of His-PPP2CA or His-PPP2R1A added overnight at 4°C, three washes with PBS, Western blot; both purified
[2] = target: endogenous AKR1B10 (human (endogenous in HCT116 and SW1116)) (UniProt O60218); test: co-IP; endogenous proteins, anti-AKR1B10 antibody, lysates of HCT116 and SW1116 (and gastric cancer) cells; Protein A/G PLUS-Agarose at 4°C overnight, Western blot
[3] = target: endogenous B56α (PPP2R5A), regulatory subunit of PP2A (human (endogenous in HCT116)) (UniProt Q15172); test: co-IP; endogenous proteins, immunoprecipitation of PPP2R5A from HCT116 shNC or shAKR1B10 lysates; cells also treated with DPI (10 μM for 20 hours) or FeTPPS (10 μM for 3 hours) or reconstituted with AKR1B10 WT, K125L or C299S; Western blot

| Substance | binding [1] | binding [2] | binding [3] |
| --- | --- | --- | --- |
| recombinant His-PPP2R1A (PP2A Aα) (from UniProt P30153 1-589) | no binding (tested: 3 μg) |  |  |
| endogenous PPP2CA (catalytic subunit of PP2A) (from UniProt P67775 1-309) (enzyme) |  | binds | binds |
